Laboratory results: PubChem BioAssay AID504834 (National Center for Advancing Translational Sciences (NCATS), 2011)
The whole screen tested about 320,000 compounds, of which about 22,000 (6.9%) were called active. Inconclusive results, whose numbers are uncertain, are shown with a selection of clear calls. The call rests on the fitted dose curve; in most records, active means well fitted inhibition curve with a large enough effect; inconclusive means small, poorly fitted or top-dose-only effect, or another doubt; inactive means no such curve, though single readings can be large or run the other way. Potencies beside an inconclusive call are fits to weak or partial responses and may not hold up.

assay: Primary qHTS for delayed death inhibitors of the malarial parasite plastid, 96 hour incubation; conditions: P. falciparum luciferase reporter growth; series mostly up to 28.7 µM
Procedure, shortened: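 Cell-based qHTS: luciferase-tagged P. falciparum in erythrocytes (2% hematocrit, 0.05% parasitemia final) incubated with compounds for 96 hours, 37 C, 5% CO2; luciferase detection reagent then added and luminescence measured.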
Potency means the concentration at half of the fitted maximal effect.

| Structure (SMILES) | Potency |
| --- | --- |
| COCNc1nc(OCC#N)nc(N(C)C)n1 | inconclusive: 14.7 µM [inhibitor, single point] |
| Cn1c(N)c(C(=O)CSc2ccc3c(c2)OCCO3)c(=O)n(C)c1=O | inactive |
| CCC(C(=O)NC1CCCC1)N(Cc1cccs1)C(=O)Cn1nnc(-c2ccc(OC)c(OC)c2)n1 (stereo not given) | inconclusive: 2.33 µM [inhibitor, partial curve, poor fit] |
| COC(=O)CSc1nnc(-c2ccco2)n1Cc1ccco1 | inactive |
| Cc1ccc(NC(=O)Cn2cc(C=O)c3ccccc32)cc1 | inconclusive: 16.5 µM [inhibitor, single point] |
| O=C(Nc1ccccc1)N(C1=NCCC1)c1ccccc1 | inactive |
| O=C(O)/C=C/C(=O)Nc1ccccc1-c1ccccc1NC(=O)/C=C/C(=O)O | inconclusive: 2.08 µM [inhibitor, partial curve, poor fit] |
| CC1CCCC(NC(=O)CN2CCN(S(=O)(=O)c3ccc(Br)s3)CC2)C1C (stereo not given) | inconclusive: 9.28 µM [inhibitor, single point] |
| COc1ccccc1NC(=O)Nc1ccncc1 | inconclusive: 18.5 µM [inhibitor, single point] |
| CNC(=S)N1N=C(c2ccc(Br)cc2)CC1c1ccc(Br)cc1 (stereo not given) | inconclusive: 13.1 µM [inhibitor, partial curve, poor fit] |
| COC(=O)c1c(-c2ccc(OC)cc2)sc2ccccc12 | inconclusive: 16.5 µM [inhibitor, single point] |
| O=c1[nH]c(=S)[nH]c(O)c1C(c1ccccn1)c1c(O)[nH]c(=S)[nH]c1=O | inconclusive: 0.0828 µM [inhibitor, full curve, poor fit] |
| COc1ccc(S(=O)(=O)Nc2cccc(-c3ccc4nncn4n3)c2)c(OC)c1 | inconclusive: 18.5 µM [inhibitor, single point] |
| CC1=C(C(=O)Nc2ccccc2)C(c2ccc(C)cc2)N=C(Nc2nc3ccccc3o2)N1 (stereo not given) | inconclusive: 4.15 µM [inhibitor, full curve] |
| CCCn1c(=O)c(C(=O)NCCc2ccc(OC)cc2)c(O)c2ccccc21 | inconclusive: 8.28 µM [inhibitor, single point] |
| Cc1ccc(NC(=O)C(C)OC(=O)c2ccc(NS(=O)(=O)c3ccc(F)c(F)c3)cc2)cc1 (stereo not given) | inconclusive: 18.5 µM [inhibitor, partial curve, poor fit] |
| O=C1CCC(CCC(=O)N2CCCC(C(=O)c3ccc(Cl)cc3)C2)=NN1 (stereo not given) | inconclusive: 11.7 µM [inhibitor, partial curve] |
| O=C(CSCc1ccc(Br)cc1)Nc1ccc(S(=O)(=O)N2CCCCCC2)cc1 | inconclusive: 10.4 µM [inhibitor, partial curve, poor fit] |
| CC(CN1C(C)CCCC1C)OC(=O)c1ccc(F)cc1 (stereo not given) | inconclusive: 2.33 µM [inhibitor, full curve] |
| O=C(COC(=O)c1ccc2c(c1Cl)C(=O)c1ccccc1C2=O)NC1CCCCC1 | inactive |

| Structure (SMILES) | Potency |
| --- | --- |
| Cc1cc(N/N=C/c2cccc(Br)c2)nc2ccccc12 | inactive |
| O=C(Nc1ccccc1Oc1cccnc1)C1CCCN(C/C=C/c2ccccc2)C1 (stereo not given) | inconclusive: 18.5 µM [inhibitor, single point] |
| Cc1ccnc(NC(=O)c2ccc([N+](=O)[O-])o2)c1 | inconclusive: 20.8 µM [inhibitor, partial curve, poor fit] |
| CN(c1ccccc1)S(=O)(=O)c1cccc(NC(=O)CCNC(=O)c2ccc(Cl)cc2)c1 | inconclusive: 11.7 µM [inhibitor, partial curve, poor fit] |
| Cc1ccc(CN(Cc2cc3cc4c(cc3[nH]c2=O)OCCO4)Cc2nnnn2Cc2ccco2)cc1 | inconclusive: 11.7 µM [inhibitor, single point] |
| O=C(Nc1ncn[nH]1)c1cccc(S(=O)(=O)N2CCOCC2)c1 | inactive |
| O=C(Cc1ccsc1)NCC(=O)Nc1ccc(F)c(F)c1 | inconclusive: 18.5 µM [inhibitor, single point] |
| COc1ccc(NS(=O)(=O)c2ccc(-c3coc(C)n3)cc2)cc1OC | inconclusive: 8.28 µM [inhibitor, single point] |
| CN(C(=O)/C=C/c1ccc2c(c1)OCO2)c1ccccc1 | inconclusive: 18.5 µM [inhibitor, single point] |
| Cc1ccc(-c2cc(C(=O)OCC(=O)N(C)c3c(N)n(Cc4ccccc4)c(=O)[nH]c3=O)c3ccccc3n2)o1 | inconclusive: 9.28 µM [inhibitor, single point] |
| Cc1cccc(NC(=O)CCCn2c(=S)[nH]c3ccccc3c2=O)c1 | inconclusive: 3.29 µM [inhibitor, single point] |
| COc1ccc(/C=C/C2=CCN(Cc3ccc(OC)cc3)CC2)cc1 | inconclusive: 18.5 µM [inhibitor, single point] |
| Nc1nn(-c2ccccc2)c2ccc([N+](=O)[O-])cc12 | inconclusive: 18.5 µM [inhibitor, single point] |
| CCc1nc2ccc(C(=O)Nc3ccc4c(c3)OCO4)cc2nc1CC | inconclusive: 2.94 µM [inhibitor, partial curve, poor fit] |
| COc1ccccc1CC(NC(C)=O)C(=O)NC1CCN(C(=O)Nc2ccccc2F)CC1 (stereo not given) | inactive |
| COC(=O)c1ccc2ccccc2c1OC1OC(CO)C(O)C(O)C1NC(C)=O (stereo not given) | active: 10.4 µM |
| C#CCOCCOCCOCCNc1nc(N2CCN(C(=O)[C@H]([C@@H](C)CC)n3cc(CCCN=C(N)N)nn3)CC2)nc(N2CCN(C(=O)[C@H]([C@@H](C)CC)n3cc(CCCN=C(N)N)nn3)CC2)n1 | active: 0.928 µM |
| CCN(CC)C(=O)c1ccccc1NC(=O)c1cccc(S(=O)(=O)N(CC)CC)c1 | inconclusive: 18.5 µM [inhibitor, single point] |
| CSc1nc(SCC(=O)NCC2CCCO2)c2c3c(sc2n1)CN(C)CC3 (stereo not given) | inconclusive: 3.7 µM [inhibitor, full curve] |
| CN(C)c1ccncc1C(=O)Nc1ccc(F)cc1F | inconclusive: 11.7 µM [inhibitor, single point] |

Copied from the list:
Nc1nn(-c2ccccc2)c2ccc([N+](=O)[O-])cc12 – Potency: inconclusive: 18.5 µM [inhibitor, single point]
COC(=O)CSc1nnc(-c2ccco2)n1Cc1ccco1 – Potency: inactive
COc1ccc(/C=C/C2=CCN(Cc3ccc(OC)cc3)CC2)cc1 – Potency: inconclusive: 18.5 µM [inhibitor, single point]
